Measurements taken from PMC10978910.
Like-named read-outs stand apart in the source and are kept apart here. No constants are given. Whether binding was seen depends on the method and setting. For some assays here: Binding seen in cells or lysates may run through a third protein. Some results given as binding are weak or reduced against the parent protein; the word gives no strength. Sequences can lack the tags named with a protein. Values belong to the molecule of their own block, whether it stands above or below them.

Sequences of proteins named here, by UniProt entry; tags and fusion partners are left off.
UniProt Q9FIJ0: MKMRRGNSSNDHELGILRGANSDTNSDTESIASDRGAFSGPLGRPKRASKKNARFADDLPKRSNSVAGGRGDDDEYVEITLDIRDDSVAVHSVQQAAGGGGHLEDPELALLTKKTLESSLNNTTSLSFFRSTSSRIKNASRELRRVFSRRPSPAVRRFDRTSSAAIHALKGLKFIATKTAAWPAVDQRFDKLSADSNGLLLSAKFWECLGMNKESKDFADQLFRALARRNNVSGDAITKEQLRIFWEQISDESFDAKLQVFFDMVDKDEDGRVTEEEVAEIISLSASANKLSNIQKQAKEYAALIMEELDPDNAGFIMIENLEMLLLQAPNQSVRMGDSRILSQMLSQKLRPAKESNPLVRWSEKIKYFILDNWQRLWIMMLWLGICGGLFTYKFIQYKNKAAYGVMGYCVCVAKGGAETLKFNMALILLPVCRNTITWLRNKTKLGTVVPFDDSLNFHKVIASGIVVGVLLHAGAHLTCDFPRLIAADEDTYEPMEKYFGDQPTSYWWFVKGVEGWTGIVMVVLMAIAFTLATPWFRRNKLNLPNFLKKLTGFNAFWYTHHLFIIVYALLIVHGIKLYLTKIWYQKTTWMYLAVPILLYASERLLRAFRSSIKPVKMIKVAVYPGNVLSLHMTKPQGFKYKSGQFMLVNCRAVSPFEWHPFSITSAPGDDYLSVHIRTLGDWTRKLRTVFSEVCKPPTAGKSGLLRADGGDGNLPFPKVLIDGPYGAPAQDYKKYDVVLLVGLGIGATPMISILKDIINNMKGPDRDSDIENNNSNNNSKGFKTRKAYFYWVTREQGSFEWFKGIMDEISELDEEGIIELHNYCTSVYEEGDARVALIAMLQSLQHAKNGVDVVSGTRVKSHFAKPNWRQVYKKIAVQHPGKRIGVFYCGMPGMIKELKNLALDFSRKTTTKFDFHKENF

What was measured:
[1] = target: T1, ALR1-nLUC (Arabidopsis thaliana) (UniProt Q9ZVR7); experiment: split reporter; split luciferase complementation; 35S:cLUC-Rboh and 35S:ALR1-nLUC co-infiltrated into N. benthamiana leaves, imaged 48 h after infiltration
T1 sequence: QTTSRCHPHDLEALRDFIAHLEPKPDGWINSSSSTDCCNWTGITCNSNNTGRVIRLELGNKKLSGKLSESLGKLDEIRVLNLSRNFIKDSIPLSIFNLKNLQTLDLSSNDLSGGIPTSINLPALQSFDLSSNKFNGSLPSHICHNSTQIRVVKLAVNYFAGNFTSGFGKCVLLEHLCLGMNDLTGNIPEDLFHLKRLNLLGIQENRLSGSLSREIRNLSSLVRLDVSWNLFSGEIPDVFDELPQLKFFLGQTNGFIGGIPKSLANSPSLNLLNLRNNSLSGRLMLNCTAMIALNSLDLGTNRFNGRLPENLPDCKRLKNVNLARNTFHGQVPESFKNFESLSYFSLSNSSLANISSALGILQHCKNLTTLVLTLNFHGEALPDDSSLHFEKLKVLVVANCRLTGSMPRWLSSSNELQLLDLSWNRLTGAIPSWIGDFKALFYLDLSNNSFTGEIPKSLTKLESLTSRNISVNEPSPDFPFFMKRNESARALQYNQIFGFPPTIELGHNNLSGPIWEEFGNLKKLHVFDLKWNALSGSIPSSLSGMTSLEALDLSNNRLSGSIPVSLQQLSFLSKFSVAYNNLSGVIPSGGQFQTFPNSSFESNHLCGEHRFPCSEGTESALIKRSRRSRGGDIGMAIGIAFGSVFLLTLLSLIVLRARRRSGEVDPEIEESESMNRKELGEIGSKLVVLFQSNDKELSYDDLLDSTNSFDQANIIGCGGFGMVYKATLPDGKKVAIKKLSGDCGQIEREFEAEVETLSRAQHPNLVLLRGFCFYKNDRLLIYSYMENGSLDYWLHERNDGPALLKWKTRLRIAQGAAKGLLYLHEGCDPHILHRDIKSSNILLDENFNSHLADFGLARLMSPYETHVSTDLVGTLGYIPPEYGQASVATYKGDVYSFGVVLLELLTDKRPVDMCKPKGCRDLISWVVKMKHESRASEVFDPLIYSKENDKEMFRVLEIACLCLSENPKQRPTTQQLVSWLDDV

[2] = target: T2, ALR1-nYFP (Arabidopsis thaliana) (UniProt Q9ZVR7); experiment: split reporter; BiFC (nYFP/cYFP) in Arabidopsis mesophyll protoplasts, 10-12 h in W5 solution; control, 50 µM AlCl3 or 50 µM LaCl3 for 10 min before detection
T2 sequence: T1 sequence

[3] = target: T3, BD-ALR1 (pBT3-STE-ALR1) (Arabidopsis thaliana) (UniProt Q9ZVR7); experiment: two-hybrid; split-ubiquitin membrane yeast two-hybrid screen for ALR1 interactants; 18 potential interactors
T3 sequence: T1 sequence

[4] = target: T3, BD-ALR1 (pBT3-STE-ALR1) (Arabidopsis thaliana); experiment: two-hybrid; split-ubiquitin membrane yeast two-hybrid, BD-ALR1 (pBT3-STE) co-transformed with AD preys (pPR3-N) into NMY51; growth on SD -Ade/His/Leu/Trp
[5] = target: T1, ALR1-nLUC (Arabidopsis thaliana); experiment: split reporter; split luciferase complementation; 35S:cLUC-Rboh and 35S:ALR1-nLUC co-infiltrated into N. benthamiana leaves, imaged 48 h after infiltration; remark: listed apart in the source
[6] = target: T4, BAK1-cYFP (Arabidopsis thaliana) (UniProt Q94F62); experiment: split reporter; BiFC (nYFP/cYFP) in Arabidopsis mesophyll protoplasts, 10-12 h in W5 solution; control, 50 µM AlCl3 or 50 µM LaCl3 for 10 min before detection
T4 sequence: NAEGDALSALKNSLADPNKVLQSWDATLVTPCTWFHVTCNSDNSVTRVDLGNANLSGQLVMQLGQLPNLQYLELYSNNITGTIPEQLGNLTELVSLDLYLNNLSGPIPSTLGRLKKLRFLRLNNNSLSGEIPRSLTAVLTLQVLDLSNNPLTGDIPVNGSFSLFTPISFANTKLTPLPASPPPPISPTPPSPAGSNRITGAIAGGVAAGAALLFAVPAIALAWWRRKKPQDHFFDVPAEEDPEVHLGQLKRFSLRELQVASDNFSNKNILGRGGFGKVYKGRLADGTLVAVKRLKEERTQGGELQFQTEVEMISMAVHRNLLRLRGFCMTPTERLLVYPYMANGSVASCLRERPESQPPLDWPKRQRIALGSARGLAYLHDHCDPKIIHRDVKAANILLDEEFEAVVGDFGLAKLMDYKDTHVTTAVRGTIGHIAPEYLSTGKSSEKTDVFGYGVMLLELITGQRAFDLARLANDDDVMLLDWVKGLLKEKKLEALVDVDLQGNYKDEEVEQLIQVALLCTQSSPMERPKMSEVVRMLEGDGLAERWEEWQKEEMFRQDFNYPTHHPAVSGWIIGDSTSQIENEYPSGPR

[7] = target: T5, YFP-BAK1 (pUC35S-YFP-BAK1) (Arabidopsis thaliana) (UniProt Q94F62); experiment: co-IP; protoplasts of FLAG-ALR1/WT transfected with YFP-BAK1; control or 50 µM AlCl3 for 10 min; GFP-Trap, blots with α-GFP and α-FLAG
T5 sequence: T4 sequence

binding [1]: binds
Molecule: cLUC-RbohD (from UniProt Q9FIJ0 1-921) (enzyme)

binding [5]: binds weakly
B1: cLUC-RbohA (enzyme, UniProt O81209 1-902)
chain: MMNRSEMQKLGFEHVRYYTESPYNRGESSANVATTSNYYGEDEPYVEITLDIHDDSVSVYGLKSPNHRGAGSNYEDQSLLRQGRSGRSNSVLKRLASSVSTGITRVASSVSSSSARKPPRPQLAKLRRSKSRAELALKGLKFITKTDGVTGWPEVEKRFYVMTMTTNGLLHRSRFGECIGMKSTEFALALFDALARRENVSGDSININELKEFWKQITDQDFDSRLRTFFAMVDKDSDGRLNEAEVREIITLSASANELDNIRRQADEYAALIMEELDPYHYGYIMIENLEILLLQAPMQDVRDGEGKKLSKMLSQNLMVPQSRNLGARFCRGMKYFLFDNWKRVWVMALWIGAMAGLFTWKFMEYRKRSAYEVMGVCVCIAKGAAETLKLNMAMILLPVCRNTITWLRTKTKLSAIVPFDDSLNFHKVIAIGISVGVGIHATSHLACDFPRLIAADEDQYEPMEKYFGPQTKRYLDFVQSVEGVTGIGMVVLMTIAFTLATTWFRRNKLNLPGPLKKITGFNAFWYSHHLFVIVYSLLVVHGFYVYLIIEPWYKKTTWMYLMVPVVLYLCERLIRAFRSSVEAVSVLKVAVLPGNVLSLHLSRPSNFRYKSGQYMYLNCSAVSTLEWHPFSITSAPGDDYLSVHIRVLGDWTKQLRSLFSEVCKPRPPDEHRLNRADSKHWDYIPDFPRILIDGPYGAPAQDYKKFEVVLLVGLGIGATPMISIVSDIINNLKGVEEGSNRRQSPIHNMVTPPVSPSRKSETFRTKRAYFYWVTREQGSFDWFKNVMDEVTETDRKNVIELHNYCTSVYEEGDARSALITMLQSLNHAKHGVDVVSGTRVMSHFARPNWRSVFKRIAVNHPKTRVGVFYCGAAGLVKELRHLSLDFSHKTSTKFIFHKENF

binding [5]: binds weakly
B4: cLUC-RbohE (enzyme, UniProt O81211 1-952)
chain: MKLSPLSFSTSSSFSHADGIDDGVELISSPFAGGAMLPVFLNDLSRNSGESGSGSSWERELVEVTLELDVGDDSILVCGMSEAASVDSRARSVDLVTARLSRNLSNASTRIRQKLGKLLRSESWKTTTSSTAGERDRDLERQTAVTLGILTARDKRKEDAKLQRSTSSAQRALKGLQFINKTTRGNSCVCDWDCDCDQMWKKVEKRFESLSKNGLLARDDFGECVGMVDSKDFAVSVFDALARRRRQKLEKITKDELHDFWLQISDQSFDARLQIFFDMADSNEDGKITREEIKELLMLSASANKLAKLKEQAEEYASLIMEELDPENFGYIELWQLETLLLQRDAYMNYSRPLSTTSGGVSTPRRNLIRPRHVVQKCRKKLQCLILDNWQRSWVLLVWVMLMAILFVWKFLEYREKAAFKVMGYCLTTAKGAAETLKLNMALVLLPVCRNTLTWLRSTRARACVPFDDNINFHKIIACAIAIGILVHAGTHLACDFPRIINSSPEQFVLIASAFNGTKPTFKDLMTGAEGITGISMVILTTIAFTLASTHFRRNRVRLPAPLDRLTGFNAFWYTHHLLVVVYIMLIVHGTFLFFADKWYQKTTWMYISVPLVLYVAERSLRACRSKHYSVKILKVSMLPGEVLSLIMSKPPGFKYKSGQYIFLQCPTISRFEWHPFSITSAPGDDQLSVHIRTLGDWTEELRRVLTVGKDLSTCVIGRSKFSAYCNIDMINRPKLLVDGPYGAPAQDYRSYDVLLLIGLGIGATPFISILKDLLNNSRDEQTDNEFSRSDFSWNSCTSSYTTATPTSTHGGKKKAVKAHFYWVTREPGSVEWFRGVMEEISDMDCRGQIELHNYLTSVYDEGDARSTLIKMVQALNHAKHGVDILSGTRVRTHFARPNWKEVFSSIARKHPNSTVGVFYCGIQTVAKELKKQAQDMSQKTTTRFEFHKEHF

More lines, now with the values behind:

Molecule: RbohD-cYFP (from UniProt Q9FIJ0 1-921) (enzyme)
binding [2]: binds

Molecule: AD-RbohD (pPR3-N-RbohD) (from UniProt Q9FIJ0 1-921) (enzyme)
binding [3]: binds
binding [4]: binds

B2: ALR1-nYFP (receptor, UniProt Q9ZVR7 26-1008)
chain: T1 sequence
binding [6]: binds

B3: FLAG-ALR1 (receptor, UniProt Q9ZVR7 26-1008)
chain: T1 sequence
binding [7]: binds
